Measurements published in the supplement of paper PMC12067093, “Discovery and optimisation of a covalent ligand for TRIM25 and its application to targeted protein ubiquitination” (Chemical Science, 2025).
The list shows a part of the results.

Compound: Cc1cc(ccc1-c1ccccc1)C(=O)N1CCCN(CC1)C(=O)CCl [compound 10]
Experiment: probe-labelled cysteine peptide fold change vs DMSO (competition) (log2 fold change); higher = less target engagement (more negative = stronger competition)
Conditions: THP-1, incubation time: 4 h
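Further: competitive profiling in live THP-1 cells: cysteine peptides tagged with an iodoacetamide desthiobiotin (IA-DTB) probe, intensity after compound treatment relative to DMSO-treated cells.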

Target	probe-labelled cysteine peptide fold change (10 µM)	probe-labelled cysteine peptide fold change (50 µM)
FKBP1A_P62942_23_RGQTCVVHYTGMLEDGK (UniProt P62942)	0.165	-0.0845
FNBP1_Q96RU3_511_RQSGLYDSQNPPTVNNCAQDR (UniProt Q96RU3)	0.158	-0.162
FUBP3_Q96I24_366_CGLVIGK (UniProt Q96I24)	0.0932	-0.113
G6PD_P11413_385_LQFHDVAGDIFHQQCKR (UniProt P11413)	-0.0125	-0.683
FUCA2_Q9BTY2_269_WGAGSICK (UniProt Q9BTY2)	-0.237	-0.248
GALK2_Q01415_349_KICEEAPENMVQLLGELMNQSHMSCR (UniProt Q01415)	-0.0129	-0.0841
FNDC3B_Q53EP0_558_SCPSEVLVCTTSPDRPGPPTRPLVK (UniProt Q53EP0)	-0.192	-0.0216
FSCN1_Q16658_121_YFGGTEDRLSCFAQTVSPAEK (UniProt Q16658)	-0.481	-0.838
FLNB_O75369_2154_NSHCVR (UniProt O75369)	-0.434	0.73
FUBP1_Q96AE4_332_CQHAAEIITDLLR (UniProt Q96AE4)	0.0726	-0.0146
GABPB1_Q06547_331_RQCIEIIENR (UniProt Q06547)	-0.171	0.199
FUT4_P22083_211_DSAPRPPPDCR (UniProt P22083)	-0.0442	0.387
FTO_Q9C0B1_249_SAVAVYSYSCEGPEEESEDDSHLEGRDPDIWHVGFK (UniProt Q9C0B1)	-0.207	-0.335
FHL2_Q14192_254_CSLSLVGR (UniProt Q14192)	0.0177	-0.551
FRMD8_Q9BZ67_206_EKLDSFLPAHLCK (UniProt Q9BZ67)	-0.331	-0.964
FN3KRP_Q9HA64_11_ELGCSSVR (UniProt Q9HA64)	-0.0443	0.412
FILIP1L_Q4L180_737_IHEYMATEDLICHLQGDHSVLQK (UniProt Q4L180)	-0.0256	-0.111
GABPB1_Q06547_331_QCIEIIENRVESAEIEER (UniProt Q06547)	-0.455	-0.214
FLII_Q13045_119_LDDLSVLDLSHNQLTECPR (UniProt Q13045)	-0.0794	0.293
FXR1_P51114_211_HLECTK (UniProt P51114)	-0.141	-0.767
GABPB1_Q06547_331_QCIEIIENR (UniProt Q06547)	-0.297	-0.0145
FUBP1_Q96AE4_132_IQQESGCK (UniProt Q96AE4)	0.585	0.279
GAK_O14976_472_VSECGWAAR (UniProt O14976)	-0.232	-0.0933
FLII_Q13045_1257+1265_CFHAWSAFCK (UniProt Q13045)	-0.0916	-0.374
FLNB_O75369_1617_CLATGPGIASTVK (UniProt O75369)	0.0409	0.231
FKBP3_Q00688_133_KGDVVHCWYTGTLQDGTVFDTNIQTSAK (UniProt Q00688)	0.106	-0.0529
GABPA_Q06546_421_LVTECEQK (UniProt Q06546)	0.0311	-0.108
FRYL_O94915_2160_DCSNWINVVCR (UniProt O94915)	-0.179	0.246

Target	probe-labelled cysteine peptide fold change (10 µM)	probe-labelled cysteine peptide fold change (50 µM)
FNDC3B_Q53EP0_674_TLSIAPGQCRPPR (UniProt Q53EP0)	-0.0164	-0.0458
FTH1_P02794_91+103_KPDCDDWESGLNAMECALHLEK (UniProt P02794)	0.507	0.227
FTSJ3_Q8IY81_577_QQLPQTPPSCLK (UniProt Q8IY81)	-0.0519	-0.407
FKBP4_Q02790_342_LQAFSAAIESCNK (UniProt Q02790)	0.18	0.221
FHL2_Q14192_92_EDQLLCTDCYSNEYSSK (UniProt Q14192)	0.158	-0.0868
FNBP4_Q8N3X1_603_GWSCHWDR (UniProt Q8N3X1)	0.208	0.657
FOXK1_P85037_665_VCEVGPK (UniProt P85037)	-0.343	-0.249
FRY_Q5TBA9_2009_IQACTQQGLSSK (UniProt Q5TBA9)	-0.419	-0.465
FLNB_O75369_991_KVVPCLVTPVTGR (UniProt O75369)	-0.046	-0.106
FNDC3A_Q9Y2H6_625_EHLCDR (UniProt Q9Y2H6)	-0.00617	-0.0301
FRA10AC1_Q70Z53_240_DCEESSHKK (UniProt Q70Z53)	-0.0608	-0.359
FTO_Q9C0B1_294+308_ISWDIETPGLAIPLHQGDCYFMLDDLNATHQHCVLAGSQPR (UniProt Q9C0B1)	-0.278	-0.585
GALK1_P51570_243_RQCEEVAR (UniProt P51570)	-0.154	-0.0906
G3BP1_Q13283_73_VMSQNFTNCHTK (UniProt Q13283)	-0.169	-0.109
FUBP1_Q96AE4_148_SCMLTGTPESVQSAKR (UniProt Q96AE4)	0.287	-0.336
FNDC3A_Q9Y2H6_560_SNPSEVVEFTTCPDKPGIPVKPSVK (UniProt Q9Y2H6)	-0.0701	0.0586
FYCO1_Q9BQS8_293_LTCLVAELQK (UniProt Q9BQS8)	0.0275	0.224
FXR1_P51114_129+141_CTVDVPEDLREACANENAHK (UniProt P51114)	-0.000958	-0.0928
FHL1_Q13642_150_GEDFYCVTCHETK (UniProt Q13642)	0.107	-0.0472
FN1_P02751_461_FGFCPMAAHEEICTTNEGVMYR (UniProt P02751)	-0.0464	-0.0929
FNDC3B_Q53EP0_1025_LTEFTCYSFR (UniProt Q53EP0)	0.341	0.271
FLNB_O75369_2057_VDIQTEDLEDGTCK (UniProt O75369)	-0.0403	0.123
FRY_Q5TBA9_2494_CDMQILEER (UniProt Q5TBA9)	-0.296	-0.225
FNBP1_Q96RU3_130_AQQHIETCWK (UniProt Q96RU3)	0.0278	0.00215
FOXK1_P85037_439_SGGLQTPECLSR (UniProt P85037)	-0.394	-0.726
FLII_Q13045_119_NSGVPDDIFKLDDLSVLDLSHNQLTECPR (UniProt Q13045)	-0.0155	-0.0136
FXR2_P51116_282_IYGETPEACR (UniProt P51116)	0.408	0.0833

Copied from above (14 entries):
Target	probe-labelled cysteine peptide fold change (10 µM)	probe-labelled cysteine peptide fold change (50 µM)
FHL2_Q14192_254_CSLSLVGR (UniProt Q14192)	0.0177	-0.551
FRMD8_Q9BZ67_206_EKLDSFLPAHLCK (UniProt Q9BZ67)	-0.331	-0.964
FN3KRP_Q9HA64_11_ELGCSSVR (UniProt Q9HA64)	-0.0443	0.412
FILIP1L_Q4L180_737_IHEYMATEDLICHLQGDHSVLQK (UniProt Q4L180)	-0.0256	-0.111
GABPB1_Q06547_331_QCIEIIENRVESAEIEER (UniProt Q06547)	-0.455	-0.214
FLII_Q13045_119_LDDLSVLDLSHNQLTECPR (UniProt Q13045)	-0.0794	0.293
FXR1_P51114_211_HLECTK (UniProt P51114)	-0.141	-0.767
GABPB1_Q06547_331_QCIEIIENR (UniProt Q06547)	-0.297	-0.0145
FUBP1_Q96AE4_132_IQQESGCK (UniProt Q96AE4)	0.585	0.279
GAK_O14976_472_VSECGWAAR (UniProt O14976)	-0.232	-0.0933
FLII_Q13045_1257+1265_CFHAWSAFCK (UniProt Q13045)	-0.0916	-0.374
FLNB_O75369_1617_CLATGPGIASTVK (UniProt O75369)	0.0409	0.231
FKBP3_Q00688_133_KGDVVHCWYTGTLQDGTVFDTNIQTSAK (UniProt Q00688)	0.106	-0.0529
GABPA_Q06546_421_LVTECEQK (UniProt Q06546)	0.0311	-0.108
